Experimental data reported in article PMC3762724.
Numbering of substitutions follows the chain as printed. Numbers in names are those of the source. Results are given in words; binding and its absence hold for the method and conditions named. In cells and extracts the contact can be indirect. Some entries that bind do so weakly or less than the wild type. Sequences can lack the tags named with a protein.

B1: f-hMSH5 (wild-type hMSH5) (protein, UniProt O43196 1-834)
chain: MASLGANPRRTPQGPRPGAASSGFPSPAPVPGPREAEEEEVEEEEELAEIHLCVLWNSGYLGIAYYDTSDSTIHFMPDAPDHESLKLLQRVLDEINPQSVVTSAKQDENMTRFLGKLASQEHREPKRPEIIFLPSVDFGLEISKQRLLSGNYSFIPDAMTATEKILFLSSIIPFDCLLTVRALGGLLKFLGRRRIGVELEDYNVSVPILGFKKFMLTHLVNIDQDTYSVLQIFKSESHPSVYKVASGLKEGLSLFGILNRCHCKWGEKLLRLWFTRPTHDLGELSSRLDVIQFFLLPQNLDMAQMLHRLLGHIKNVPLILKRMKLSHTKVSDWQVLYKTVYSALGLRDACRSLPQSIQLFRDIAQEFSDDLHHIASLIGKVVDFEGSLAENRFTVLPNIDPEIDEKKRRLMGLPSFLTEVARKELENLDSRIPSCSVIYIPLIGFLLSIPRLPSMVEASDFEINGLDFMFLSEEKLHYRSARTKELDALLGDLHCEIRDQETLLMYQLQCQVLARAAVLTRVLDLASRLDVLLALASAARDYGYSRPRYSPQVLGVRIQNGRHPLMELCARTFVPNSTECGGDKGRVKVITGPNSSGKSIYLKQVGLITFMALVGSFVPAEEAEIGAVDAIFTRIHSCESISLGLSTFMIDLNQVAKAVNNATAQSLVLIDEFGKGTNTVDGLALLAAVLRHWLARGPTCPHIFVATNFLSLVQLQLLPQGPLVQYLTMETCEDGNDLVFFYQVCEGVAKASHASHTAAQAGLPDKLVARGKEVSDLIRSGKPIKPVKDLLKKNQMENCQTLVDKFMKLDLEDPNLDLNVFMSQEVLPAATSIL
B2: f-hMSH5^L85F (protein, UniProt O43196 1-834)
chain: B1 chain with L85F
B3: f-hMSH5^Y202C (protein, UniProt O43196 1-834)
chain: B1 chain with Y202C
B4: f-hMSH5^V206F (protein, UniProt O43196 1-834)
chain: B1 chain with V206F
B5: f-hMSH5^R351G (protein, UniProt O43196 1-834)
chain: B1 chain with R351G
B6: f-hMSH5^L377F (protein, UniProt O43196 1-834)
chain: B1 chain with L377F
B7: f-hMSH5^P786S (protein, UniProt O43196 1-834)
chain: B1 chain with P786S

Target: T1, Myc-hMSH4 (human) (UniProt O15457)
T1 sequence: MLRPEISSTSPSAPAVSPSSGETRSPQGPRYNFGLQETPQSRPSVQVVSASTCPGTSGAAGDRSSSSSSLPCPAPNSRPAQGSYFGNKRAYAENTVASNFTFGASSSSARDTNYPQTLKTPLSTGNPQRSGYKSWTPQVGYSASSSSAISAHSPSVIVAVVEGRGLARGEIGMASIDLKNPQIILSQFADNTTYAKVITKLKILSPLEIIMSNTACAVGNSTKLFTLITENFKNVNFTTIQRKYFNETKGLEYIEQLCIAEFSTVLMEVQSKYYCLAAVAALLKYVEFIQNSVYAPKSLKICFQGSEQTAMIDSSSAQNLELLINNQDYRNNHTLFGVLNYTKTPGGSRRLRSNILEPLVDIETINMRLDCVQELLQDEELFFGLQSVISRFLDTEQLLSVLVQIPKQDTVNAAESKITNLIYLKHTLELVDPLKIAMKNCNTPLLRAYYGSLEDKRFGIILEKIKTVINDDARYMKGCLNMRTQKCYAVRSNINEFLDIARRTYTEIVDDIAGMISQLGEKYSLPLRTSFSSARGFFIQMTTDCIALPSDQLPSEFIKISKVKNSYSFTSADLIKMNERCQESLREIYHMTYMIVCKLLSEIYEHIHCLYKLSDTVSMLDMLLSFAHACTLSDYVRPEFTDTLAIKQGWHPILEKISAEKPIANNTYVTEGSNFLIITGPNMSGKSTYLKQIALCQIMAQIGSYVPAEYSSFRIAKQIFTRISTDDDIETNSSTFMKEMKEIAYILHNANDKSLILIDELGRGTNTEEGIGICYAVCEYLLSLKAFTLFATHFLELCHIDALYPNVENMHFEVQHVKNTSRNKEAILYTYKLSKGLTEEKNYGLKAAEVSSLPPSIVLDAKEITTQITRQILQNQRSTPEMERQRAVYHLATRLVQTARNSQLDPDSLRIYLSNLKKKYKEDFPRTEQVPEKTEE
Assay: co-IP; lysates of 293T stable lines expressing hMSH5 or a variant, transiently transfected with Myc-hMSH4, collected 40 hours after transfection; precipitated with mouse α-Myc antibody at 4 °C for 2 hours, Protein A/rG agarose beads; blotted with α-hMSH5 and α-hMSH4

binding, binds:
B1, B2, B3, B4, B5, B6, B7
